The other results are listed elsewhere or left out. Further columns of the screen follow, without active or inactive calls. The list favours compounds with an active or inconclusive main result. Words in brackets tell the shape of the fitted curve; partial curves, single points and poor fits give uncertain potencies.
Assay: IkB Signaling
Conditions: ABC-DLBCL IkBa-CBG/CBR dual luciferase ratio (green luciferase fused to IkBa over red control in OCI-Ly3 lymphoma cells), 4 h; measured here: control luc red channel unless noted
In short: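 In this assay, an IκBα–CBG68 fusion accumulates when IKK-driven degradation is blocked; native CBR normalizes for cell number. OCI-Ly3 cells were treated 4 h with compound and doxycycline, then green and red light read after Chroma-Glo addition.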

| SMILES | AC50 |
| --- | --- |
| Cc1cc(C)cc(NC(=O)C2CCCN(c3cnccn3)C2)c1 (configuration not stated) | 20 µM [falling, single point] |
| Cc1ccc(CNc2nc3ccccc3n3nnnc23)cc1 | 0.251 µM [falling, full curve] |
| COc1ccccc1N1CCN(S(=O)(=O)c2c(C)sc3ncn(CC(=O)Nc4ccc(C(C)C)cc4)c(=O)c23)CC1 | 3.16 µM [falling, full curve] |
| Cc1ccc(N2CCN(C(=O)c3ccc(Nc4nc5ccccc5n5nnnc45)cc3)CC2)c(C)c1 | 3.98 µM [falling, full curve] |
| COC(=O)c1c(NC(=O)CCc2ccc(C)o2)sc(C)c1C | 15.8 µM [falling, partial curve] |
| Cc1ccc2ncc(S(=O)(=O)c3ccccc3)c(N3CCCCC3C)c2c1 (configuration not stated) | 25.1 µM [falling, single point] |
| CCS(=O)(=O)N1CCN(Cc2ccncc2)CC1 | 316 nM [rising, full curve] [measured here: IkB-luc green channel] |
| COc1ccc(C2=NC3(CCCCCC3)N(CC(=O)Nc3ccc(C)c(C)c3)C2=O)cc1 | 10 µM [falling, partial curve] |
| COc1ccc(CNC(=O)CN(c2cc(C(F)(F)F)ccc2Cl)S(C)(=O)=O)cc1 | 12.6 µM [falling, partial curve] |
| CCn1c(C)c(C)c2cc(C(=O)NCc3ccc(N(C)C)cc3)ccc21 | 126 nM [rising, full curve, poor fit] [measured here: IkB-luc green channel] |
| Cc1ccc(C(=O)c2oc3ccccc3c2NC(=O)c2cc(-c3ccc(Cl)cc3)on2)cc1 | 5.01 µM [falling, partial curve] |
| CCOC(=O)C1CCCN(C(=O)c2sc3nc(-c4ccc(F)cc4)cn3c2C)C1 (configuration not stated) | 20 µM [falling, partial curve] |
| Cc1ccccc1Nc1sc(C(=O)c2ccc(F)cc2)c(N)c1C(=O)NCCc1ccccc1 | 12.6 µM [falling, single point] |
| Cc1cccc(N2CCN(C(=O)C34CC5CC(CC(C5)C3)C4)CC2)c1C | 39.8 µM [falling, single point] |
| Cc1nc(-c2ccc(S(=O)(=O)N3CCN(c4cccc(Cl)c4)CC3)cc2)co1 | 39.8 µM [falling, partial curve, poor fit] |
| CC(=O)c1cccc(NC(=O)c2sc(-n3nc(C)c(CCC(C)C)c3C)nc2C)c1 | 6.31 µM [falling, partial curve] |
| COc1ccc(NS(=O)(=O)c2ccc3c(c2)Cc2ccccc2-3)cn1 | 10 µM [falling, partial curve] |
| CC(=O)Nc1ccc(S(=O)(=O)NCC2CCC(C(=O)NCc3ccccc3Cl)CC2)cc1 (configuration not stated) | 6.31 µM [falling, partial curve, poor fit] |
| CSc1ccc(CNC(=O)Cc2csc3ccccc23)cc1 | 12.6 µM [falling, partial curve] |
| CC(=O)NCCNc1nc2c(-c3cccc(C)c3)nnn2c2ccc(Cl)cc12 | 0.251 µM [falling, full curve] |
| C1=CC2c3ccccc3NC(c3ccncc3)C2C1 (configuration not stated) | 39.8 µM [rising, single point] [measured here: IkB-luc green channel] |

| SMILES | AC50 |
| --- | --- |
| CCCCNc1ncnc2c1cnn2-c1ccccc1 | 12.6 µM [falling, partial curve] |
| COc1ccc(-n2nnnc2C2CCN(S(=O)(=O)c3ccc(F)cc3Cl)CC2)cc1 | 12.6 µM [falling, partial curve] |
| COc1ccc2c(CNC3CCCC3)c(C(=O)O)n(Cc3ccccc3C)c2c1 | 15.8 µM [falling, partial curve] |
| CCc1nn2c(=O)cc(COC(=O)c3cccc(NC(=O)c4ccccc4C)c3)nc2s1 | 7.94 µM [falling, partial curve] |
| Cc1cc(C)c2c(=O)cc(C(=O)Nc3sc4c(c3C#N)CCCC4)oc2c1 | 7.94 µM [falling, full curve] |
| Cc1ccccc1NC(=O)CN1C(=O)C2(SCC(=O)N2c2ccc(F)cc2)c2ccccc21 (configuration not stated) | 39.8 µM [falling, single point] |
| O=C(Nc1cc(C(F)(F)F)ccc1Cl)c1noc2c1CCCCC2 | 7.94 µM [falling, full curve] |
| COC(=O)c1[nH]c2cc(C)ccc2c1NC(=O)CN1CCN(c2ccccc2OC)CC1 | 15.8 µM [falling, partial curve] |
| COC(=O)C1=C(CN2CCCc3ccccc32)NC(=O)NC1c1ccc(F)cc1 (configuration not stated) | 25.1 µM [falling, partial curve, poor fit] |
| CCn1cc(C(=O)NCCc2ccc(OC)c(OC)c2)c(=O)c2cc(S(=O)(=O)N3CCOCC3)ccc21 | 2.51 µM [rising, full curve] |
| CC1CCN(S(=O)(=O)c2ccc3c(ccn3CC(=O)NCc3ccccc3F)c2)CC1 | 5.01 µM [falling, partial curve] |
| COc1cccc(CNC(=O)c2ccc3c(c2)nc2n3CCOC2)c1OC | 0.00794 µM [rising, full curve, poor fit] |
| Cc1cccc(-n2nnc(-c3nc(-c4ccccc4)no3)c2N)c1C | 1.26 µM [falling, full curve] |
| O=C(Nc1cccc(C(F)(F)F)c1)c1cc(-c2ccc(Cl)cc2)on1 | 5.01 µM [falling, partial curve] |
| CCc1nc2c(cnn2-c2ccc(C)cc2)c(=O)n1-c1ccc(C)cc1 | 39.8 µM [falling, single point] |
| Cc1ccc(-c2noc(C(C)NC(=O)c3ccco3)n2)cc1 (configuration not stated) | 1.58 µM [rising, partial curve, poor fit] |
| COc1ccc(S(=O)(=O)c2c(SC)nn(CC(=O)Nc3ccc(C)c(Cl)c3)c2N)cc1 | 15.8 µM [falling, partial curve] |
| COc1ccc(C)cc1S(=O)(=O)Nc1ccc(F)c(Cl)c1 | 20 µM [falling, partial curve] |
| CCOC(=O)c1[nH]c2ccccc2c1NC(=O)c1cc(OC)cc(OC)c1 | 15.8 µM [falling, partial curve] |
| Cn1ccnc1SCC(=O)Nc1ccc2ccccc2c1 | 7.94 µM [falling, partial curve] |
| COc1ccc(S(=O)(=O)N2CCN(CC(=O)Nc3ccc(F)c(F)c3)CC2)cc1 | 15.8 µM [falling, partial curve] |

A section from further up, as a working copy:

| SMILES | AC50 |
| --- | --- |
| COC(=O)C1=C(CN2CCCc3ccccc32)NC(=O)NC1c1ccc(F)cc1 (configuration not stated) | 25.1 µM [falling, partial curve, poor fit] |
| CCn1cc(C(=O)NCCc2ccc(OC)c(OC)c2)c(=O)c2cc(S(=O)(=O)N3CCOCC3)ccc21 | 2.51 µM [rising, full curve] |
| CC1CCN(S(=O)(=O)c2ccc3c(ccn3CC(=O)NCc3ccccc3F)c2)CC1 | 5.01 µM [falling, partial curve] |

(continued)

| SMILES | AC50 |
| --- | --- |
| N#CC1=C(SCc2ccccc2)NC(=O)CC1c1ccco1 (configuration not stated) | 5.01 µM [falling, partial curve] |
| CCCOc1ccc(Cn2cnc3ccccc32)cc1 | 12.6 µM [falling, partial curve] |
| CN=c1scc(C)n1/N=C/c1ccc(O)cc1O | 10 µM [falling, partial curve] |
| Cc1ccc(CN(C(=O)c2ccc(F)cc2)c2ccccn2)o1 | 7.94 µM [falling, single point] |
| Cc1ccc(CNc2nc3c(c(=O)n(C)c(=O)n3C)n2Cc2ccc(Cl)cc2)cc1 | 39.8 µM [falling, single point] |
| CCn1c(=O)n(-c2ccc(F)c(Cl)c2)c(=O)c2sc3ccccc3c21 | 0.631 µM [rising, full curve] |
| COc1ccc2c(c1)c(CC(=O)Nc1cccc(F)c1C)c(C)n2C(=O)c1ccc(Cl)cc1 | 5.01 µM [falling, full curve] |
| COc1cccc(-n2ccn(CC(=O)Nc3ccccc3F)c(=O)c2=O)c1 | 20 µM [falling, single point] |
| Cc1ccc(-c2nc(C#N)c(NCc3cccc4c3OCO4)o2)cc1 | 31.6 µM [rising, partial curve] [measured here: IkB-luc green channel] |
| Cc1ccc(CNS(=O)(=O)c2cc(C(=O)Nc3ccc(C(C)C)cc3)ccc2F)cc1 | 25.1 µM [falling, partial curve] |
| CCN(CC)c1ccc(NC(=O)c2ccccc2F)cc1 | 12.6 µM [falling, partial curve] |
| Cc1c(CNC2CCC(C)CC2)c(C(=O)O)c(C)n1Cc1ccc(Cl)cc1 (configuration not stated) | 25.1 µM [falling, single point] |
| Cn1cccc1C(C(=O)NC1CCCCC1)N(C(=O)Cc1cccs1)c1ccc2c(c1)OCCO2 (configuration not stated) | 20 µM [falling, partial curve, poor fit] |
| CCOC(=O)C(CC)Sc1ncnc2c1c(-c1ccccc1)cn2-c1ccc(OC)cc1 (configuration not stated) | 0.1 µM [falling, full curve, poor fit] |
| O=C(NCCc1ccc(F)cc1)C(=O)NCC(c1cccs1)S(=O)(=O)c1ccc(Cl)cc1 (configuration not stated) | 15.8 µM [falling, partial curve] |
| O=C(CSc1nnc(-c2ccccc2)c(-c2ccccc2)n1)NCCc1ccccc1 | 31.6 µM [falling, partial curve] |
| Cc1ccc(C)c(N(C)C(=O)c2cc3c(s2)-c2ccccc2OC3)c1 | 20 µM [falling, partial curve, poor fit] |
| CCn1c(=O)c2cc(C(=O)NCc3ccc(F)cc3Cl)sc2c2ccccc21 | 39.8 µM [rising, single point] |
| Cc1cc(C)c(OCC(=O)N(Cc2ccc(N(C)C)cc2)CC2CCCO2)c(C)c1 (configuration not stated) | 25.1 µM [falling, partial curve] |
| Cc1cc(=O)n(CC(=O)N2CCCc3ccccc32)c2c1c(C)nn2-c1cccc(F)c1 | 20 µM [falling, partial curve] |

An excerpt of these results, field by field:
Cc1cccc(-n2nnc(-c3nc(-c4ccccc4)no3)c2N)c1C
  AC50: 1.26 µM [falling, full curve]
O=C(Nc1cccc(C(F)(F)F)c1)c1cc(-c2ccc(Cl)cc2)on1
  AC50: 5.01 µM [falling, partial curve]
